Measured values published in PubChem BioAssay AID2662 (National Center for Advancing Translational Sciences (NCATS), 2010).
The campaign covered roughly 290,000 compounds. About 110 (0.038%) were called active. Inconclusive results, whose numbers are uncertain, are shown with a selection of clear calls. Calls come from the whole dose curve; as a rule, active = well fitted inhibition curve with a large enough effect in the polarisation, with a control signal flat (not every such curve was filed as active); inconclusive = small, poorly fitted or top-dose-only effect, or effect the other way, or a change in a side signal; inactive = no such curve, though single readings can be large or run the other way; the % refers to the polarisation. A potency beside an inconclusive call is a rough fit, not a confirmed value. “Side channel” marks fits to a control or component signal instead of the main read-out.

Chains of the proteins cited; added tags and fusions are not shown.
UniProt Q03164, whole entry, looked up: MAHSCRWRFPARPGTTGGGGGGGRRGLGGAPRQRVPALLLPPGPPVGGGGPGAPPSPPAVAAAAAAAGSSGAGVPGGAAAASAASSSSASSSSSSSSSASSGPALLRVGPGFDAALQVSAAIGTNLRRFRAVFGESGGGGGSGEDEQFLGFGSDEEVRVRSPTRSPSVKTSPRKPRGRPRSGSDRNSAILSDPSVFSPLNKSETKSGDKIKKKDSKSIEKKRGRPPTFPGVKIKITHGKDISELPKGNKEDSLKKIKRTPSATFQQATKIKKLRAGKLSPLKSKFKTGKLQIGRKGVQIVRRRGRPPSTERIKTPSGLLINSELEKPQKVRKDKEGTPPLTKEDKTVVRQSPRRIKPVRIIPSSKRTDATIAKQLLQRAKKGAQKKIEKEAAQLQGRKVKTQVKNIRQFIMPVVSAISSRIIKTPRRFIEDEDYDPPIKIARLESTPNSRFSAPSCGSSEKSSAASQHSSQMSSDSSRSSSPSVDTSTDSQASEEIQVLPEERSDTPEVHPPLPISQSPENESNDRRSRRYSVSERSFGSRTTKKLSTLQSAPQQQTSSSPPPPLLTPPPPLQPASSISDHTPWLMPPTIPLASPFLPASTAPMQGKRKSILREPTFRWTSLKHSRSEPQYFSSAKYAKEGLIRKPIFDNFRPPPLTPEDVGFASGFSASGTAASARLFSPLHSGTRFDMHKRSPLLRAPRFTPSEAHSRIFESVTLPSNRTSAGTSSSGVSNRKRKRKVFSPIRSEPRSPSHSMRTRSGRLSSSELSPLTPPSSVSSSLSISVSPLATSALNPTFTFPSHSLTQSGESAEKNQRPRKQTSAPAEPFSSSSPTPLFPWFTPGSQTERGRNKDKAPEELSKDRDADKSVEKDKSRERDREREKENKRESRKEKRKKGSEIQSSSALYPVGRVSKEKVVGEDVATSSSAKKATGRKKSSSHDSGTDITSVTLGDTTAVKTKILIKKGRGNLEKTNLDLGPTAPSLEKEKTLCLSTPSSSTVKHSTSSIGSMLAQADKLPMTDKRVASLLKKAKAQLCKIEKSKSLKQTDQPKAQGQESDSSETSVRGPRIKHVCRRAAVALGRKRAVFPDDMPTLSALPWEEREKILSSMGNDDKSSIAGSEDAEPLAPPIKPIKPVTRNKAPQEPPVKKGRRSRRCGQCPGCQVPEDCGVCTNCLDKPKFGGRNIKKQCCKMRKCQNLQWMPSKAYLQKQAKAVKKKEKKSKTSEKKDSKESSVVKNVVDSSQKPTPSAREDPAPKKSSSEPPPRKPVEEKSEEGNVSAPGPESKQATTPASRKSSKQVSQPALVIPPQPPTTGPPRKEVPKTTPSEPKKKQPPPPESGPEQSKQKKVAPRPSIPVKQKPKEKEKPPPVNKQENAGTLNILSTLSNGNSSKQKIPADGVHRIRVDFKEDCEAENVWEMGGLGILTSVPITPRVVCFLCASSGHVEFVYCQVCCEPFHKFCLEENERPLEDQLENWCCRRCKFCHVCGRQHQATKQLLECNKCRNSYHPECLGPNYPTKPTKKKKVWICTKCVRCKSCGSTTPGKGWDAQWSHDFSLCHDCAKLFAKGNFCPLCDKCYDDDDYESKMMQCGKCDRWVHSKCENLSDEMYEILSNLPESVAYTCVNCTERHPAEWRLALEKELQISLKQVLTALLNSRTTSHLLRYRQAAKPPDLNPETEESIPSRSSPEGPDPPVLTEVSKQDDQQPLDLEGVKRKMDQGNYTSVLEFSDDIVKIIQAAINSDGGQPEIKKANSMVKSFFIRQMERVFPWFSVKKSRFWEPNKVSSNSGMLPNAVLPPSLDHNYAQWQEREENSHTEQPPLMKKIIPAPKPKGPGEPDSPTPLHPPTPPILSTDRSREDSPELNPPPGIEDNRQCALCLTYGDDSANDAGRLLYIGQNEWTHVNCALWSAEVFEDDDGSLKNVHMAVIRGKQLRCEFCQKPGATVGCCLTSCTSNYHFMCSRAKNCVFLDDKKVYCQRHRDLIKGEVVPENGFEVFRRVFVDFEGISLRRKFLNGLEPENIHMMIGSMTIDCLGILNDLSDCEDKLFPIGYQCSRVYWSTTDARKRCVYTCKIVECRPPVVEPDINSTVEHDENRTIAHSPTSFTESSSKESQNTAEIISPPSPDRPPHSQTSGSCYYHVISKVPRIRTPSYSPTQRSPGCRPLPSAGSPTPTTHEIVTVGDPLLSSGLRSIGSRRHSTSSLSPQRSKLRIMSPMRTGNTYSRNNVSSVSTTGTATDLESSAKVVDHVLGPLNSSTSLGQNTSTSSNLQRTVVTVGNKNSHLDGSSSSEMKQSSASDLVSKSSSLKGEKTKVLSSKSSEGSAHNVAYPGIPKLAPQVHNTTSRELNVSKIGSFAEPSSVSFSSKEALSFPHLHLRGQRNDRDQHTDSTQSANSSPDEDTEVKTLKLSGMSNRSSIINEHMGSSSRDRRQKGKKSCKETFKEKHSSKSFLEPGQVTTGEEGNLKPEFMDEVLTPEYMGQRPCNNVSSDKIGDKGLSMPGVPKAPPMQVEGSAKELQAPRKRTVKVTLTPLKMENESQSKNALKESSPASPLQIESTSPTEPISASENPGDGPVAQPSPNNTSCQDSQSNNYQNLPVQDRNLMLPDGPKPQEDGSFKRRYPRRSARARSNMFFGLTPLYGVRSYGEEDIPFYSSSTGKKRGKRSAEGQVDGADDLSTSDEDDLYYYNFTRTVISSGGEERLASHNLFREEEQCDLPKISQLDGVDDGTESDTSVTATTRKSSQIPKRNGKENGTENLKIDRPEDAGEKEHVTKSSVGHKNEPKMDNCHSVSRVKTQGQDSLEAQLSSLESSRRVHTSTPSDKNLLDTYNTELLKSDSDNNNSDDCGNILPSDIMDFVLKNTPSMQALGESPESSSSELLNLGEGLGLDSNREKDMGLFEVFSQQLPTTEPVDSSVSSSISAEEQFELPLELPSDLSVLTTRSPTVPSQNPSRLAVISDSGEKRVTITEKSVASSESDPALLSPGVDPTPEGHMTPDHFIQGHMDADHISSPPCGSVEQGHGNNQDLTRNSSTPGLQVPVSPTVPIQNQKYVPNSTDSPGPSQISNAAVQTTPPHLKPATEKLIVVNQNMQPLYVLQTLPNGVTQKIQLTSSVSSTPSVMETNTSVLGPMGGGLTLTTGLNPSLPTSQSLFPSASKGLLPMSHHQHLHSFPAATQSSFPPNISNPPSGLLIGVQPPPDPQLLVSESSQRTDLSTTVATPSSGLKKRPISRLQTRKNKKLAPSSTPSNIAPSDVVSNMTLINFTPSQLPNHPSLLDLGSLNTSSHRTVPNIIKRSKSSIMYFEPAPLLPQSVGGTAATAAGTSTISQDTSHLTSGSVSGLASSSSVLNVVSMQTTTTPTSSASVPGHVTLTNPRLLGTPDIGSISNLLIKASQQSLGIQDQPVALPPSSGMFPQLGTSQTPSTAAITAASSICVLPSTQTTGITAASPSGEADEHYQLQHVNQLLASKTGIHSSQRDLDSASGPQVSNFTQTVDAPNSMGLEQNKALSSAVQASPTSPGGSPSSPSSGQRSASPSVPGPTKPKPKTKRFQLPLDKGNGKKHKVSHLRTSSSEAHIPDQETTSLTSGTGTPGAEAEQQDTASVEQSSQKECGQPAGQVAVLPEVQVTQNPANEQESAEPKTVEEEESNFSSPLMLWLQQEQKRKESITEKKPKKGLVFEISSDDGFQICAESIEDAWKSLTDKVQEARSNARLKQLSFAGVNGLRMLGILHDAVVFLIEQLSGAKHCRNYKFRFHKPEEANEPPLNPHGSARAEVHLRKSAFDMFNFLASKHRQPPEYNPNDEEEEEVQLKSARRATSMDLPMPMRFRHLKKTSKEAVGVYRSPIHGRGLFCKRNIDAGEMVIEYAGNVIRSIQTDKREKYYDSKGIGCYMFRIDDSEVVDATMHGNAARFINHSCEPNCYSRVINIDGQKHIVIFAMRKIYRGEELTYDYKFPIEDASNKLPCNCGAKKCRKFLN

Molecular target: Histone-lysine N-methyltransferase 2A (Homo sapiens) (UniProt Q03164)
Assay: qHTS Fluorescence Polarization Assay for Inhibitors of MLL CXXC domain - DNA interaction
Settings: MLL-CXXC / FITC-HOXA9 DNA fluorescence polarization; series mostly up to 115 µM
Procedure, shortened: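 Purified MLL-CXXC (added from a 7 uM solution) was preincubated 5 min at ambient with pinned compounds in 50 mM Tris-HCl pH 7.5, 50 mM NaCl, 1 mM DTT, 0.05% BSA. Fluorescein-labeled HOX-A9 DNA (50 nM solution) followed, 30 min, then polarization read.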
Potency is the fitted concentration of half-maximal effect.

Structure (SMILES) | Potency
C#CCOCCOCCOCCNc1nc(N2CCN(C(=O)[C@H](CCC(=O)O)n3cc(C(N)CO)nn3)CC2)nc(N2CCN(C(=O)[C@H](CCC(=O)O)n3cc(C(N)CC(C)C)nn3)CC2)n1 (stereo partly drawn) | inconclusive: 70.8 µM [fluorescent, side channel, single point]
COc1cc(/C=N/NC(=O)CN2CCCCC2)ccc1OCc1ccccc1 | inactive
COC(=O)c1cc(NC(=O)Cc2ccccc2[N+](=O)[O-])cc(C(=O)OC)c1 | inactive
COc1cccc2sc(Nc3nc4ccc(NC(C)=O)cc4s3)nc12 | inconclusive: 1.41 µM [fluorescent, side channel, full curve]
CN1C2CCC1/C(=C/c1cccn1C)C(=O)/C2=C\c1cccn1C | inconclusive: 10 µM [fluorescent, side channel, full curve]
CC(=O)Nc1ccc(C(=O)Nc2ccc(S(=O)(=O)N3CCOCC3)cc2)cc1 | inactive
COc1ccc(/C=C/c2nc(-c3ccccc3O)n[nH]2)cc1OC | inconclusive: 14.1 µM [inhibitor, single point]
Oc1ccc(CCNc2c3ccccc3nc3ccccc23)cc1O | inconclusive: 31.6 µM [quencher, side channel, single point]
COC(=O)c1ccc(N2CCOCC2)c(NC(=O)c2cccs2)c1 | inconclusive: 15.8 µM [fluorescent, side channel, single point]
COc1ccc(C2CC(c3ccccc3)=NN2S(=O)(=O)c2ccccc2)cc1 (stereo not drawn) | inconclusive: 31.6 µM [fluorescent, side channel, partial curve]
O=C(O)c1cccc(N2C(=O)/C(=C/c3ccc([N+](=O)[O-])cc3)C=C2c2ccccc2)c1 | inconclusive: 89.1 µM [fluorescent, side channel, single point]
O=C(CCC(=O)Nc1ccc(Br)cc1)N/N=C/c1ccccc1O | inconclusive: 11.2 µM [fluorescent, side channel, single point]
CC(=O)O[C@]1(C(C)=O)CC[C@H]2[C@@H]3C[C@H](C)C4=CC(=O)CC[C@]4(C)[C@H]3CC[C@@]21C | inactive
Cc1ccc(OCCOCCN2CCN(C)CC2)c(C(C)(C)C)c1 | inactive
O=C(CCc1nc(-c2ccccc2)c(-c2ccccc2)o1)OCc1ccc(Br)cc1 | inactive
CC(=O)c1ccc(NC(=S)NCc2cccnc2)cc1 | inconclusive: 10 µM [fluorescent, side channel, single point]
CCc1nnc(NS(=O)(=O)c2ccc(NC(=O)c3cc(Cl)ccc3OC)cc2)s1 | inconclusive: 5.62 µM [fluorescent, side channel, partial curve]
O=C(Cc1ccccc1[N+](=O)[O-])Nc1ccc2c(c1)OCCO2 | inactive
Cc1ccnc(NC(=O)Cc2ccc(-c3ccccc3)cc2)c1 | inconclusive: 11.2 µM [fluorescent, side channel, full curve]
CCn1nc(C(=O)NNC(=O)CCOc2cc(C)ccc2C)c2ccccc2c1=O | inconclusive: 12.6 µM [fluorescent, side channel, single point]
CCCCC(=O)Nc1nn(CC)c2nc3c(C)cccc3cc12 | inconclusive: 22.4 µM [fluorescent, side channel, partial curve]

Reformatted: entries from further up
Structure (SMILES),Potency
CC(=O)c1ccc(NC(=S)NCc2cccnc2)cc1,"inconclusive: 10 µM [fluorescent, side channel, single point]"
CCc1nnc(NS(=O)(=O)c2ccc(NC(=O)c3cc(Cl)ccc3OC)cc2)s1,"inconclusive: 5.62 µM [fluorescent, side channel, partial curve]"

Remaining list, next part.

Structure (SMILES) | Potency
CCOc1ccccc1-n1c(SCC(N)=O)nnc1-c1ccc(O)cc1 | inactive
COc1ccc(CNC(=O)N[C@@H](Cc2c[nH]c3ccccc23)C(=O)O)cc1 | inconclusive: 15.8 µM [inhibitor, single point]
CN1CCN(C(=O)/C(C#N)=C/c2ccc(OC(F)F)cc2)CC1 | inconclusive: 44.7 µM [inhibitor, partial curve]
O=c1nc(Nc2cccc(Cl)c2)oc2cc(Cl)oc(=O)c12 | inconclusive: 31.6 µM [fluorescent, side channel, partial curve]
COc1cccc(N2CC(O)=C(c3nc4ccccc4s3)C2=N)c1 | inconclusive: 11.2 µM [inhibitor, full curve]
CCOC(=O)CCC(NC(=O)CCCCCCCC(=O)NC(CCC(=O)OCC)C(=O)OCC)C(=O)OCC (stereo not drawn) | inconclusive: 11.2 µM [inhibitor, single point]
Cc1snc(S(=O)(=O)/C(C#N)=N/Nc2cccc(C(F)(F)F)c2)c1C#N | inactive
Cc1ccc(NCc2n[nH]c(=S)n2-c2ccccc2)cc1Cl | inconclusive: 15.8 µM [fluorescent, side channel, single point]
Cc1ccc[n+](-c2nc([O-])sc2/C=N/Nc2ccc([N+](=O)[O-])cc2)c1 | inconclusive: 70.8 µM [inhibitor, single point]
CC(C)=NNC(=O)CN1C(=O)NC2NC(=O)NC21 (stereo not drawn) | inconclusive: 10 µM [fluorescent, side channel, full curve, poor fit]
Cc1cccc2c(N=Nc3ccccc3)c(O)[nH]c12 | inconclusive: 7.94 µM [inhibitor, single point]
CC(=O)Nc1ccc(Nc2nnc(-c3ccc(C)c(S(N)(=O)=O)c3)c3ccccc23)cc1 | inconclusive: 70.8 µM [fluorescent, side channel, single point]
O=C(CSc1nc(-c2ccc(F)cc2)nc2c1Cc1ccccc1O2)Nc1ccc(C(=O)O)cc1 | inconclusive: 70.8 µM [inhibitor, single point]
CC(C)NC(=O)CN1CCN(C(=O)CCl)CC1 | inactive
CCOc1ccc(NC(=O)/C(C#N)=C/c2ccc(N3CCCC3)c(C)c2)cc1 | inconclusive: 8.91 µM [fluorescent, side channel, partial curve]
CCOC(=O)c1c(NC(=O)c2c(-c3ccccc3)noc2C)sc(C)c1-c1ccccc1 | inactive
CCC(C)Sc1cc(C(F)(F)F)c(C(=O)Nc2ccc(Cl)cc2)cn1 (stereo not drawn) | inactive
COc1ccc(Nc2nc(CC(C)=O)ns2)cc1 | inactive
Nc1c(C(=O)c2ccccc2)sc2snc(SCC(=O)c3ccccc3)c12 | inconclusive: 31.6 µM [inhibitor, partial curve]
COCCN1Cc2cccc(C(=O)NC(C)c3cccs3)c2C1=O (stereo not drawn) | inconclusive: 11.2 µM [fluorescent, side channel, single point]
CCOC(=O)Nc1ccc2c(c1)N(C(=O)CCN(CC)CC)c1ccccc1S2=O (stereo not drawn) | inconclusive: 56.2 µM [fluorescent, side channel, single point]

Structure (SMILES) | Potency
Cn1cnnc1Sc1ccc(/C=C/C(=O)c2ccc(O)cc2)cc1[N+](=O)[O-] | inconclusive: 10 µM [inhibitor, full curve, poor fit]
Cc1nn(Cc2ccc([N+](=O)[O-])cc2)c(=O)n1-c1ccc(F)cc1 | inconclusive: 12.6 µM [fluorescent, side channel, single point]
COc1ccc(C(=O)Nc2ccccc2-c2nnn(CC(=O)NCc3ccco3)n2)cc1 | inactive
COc1ccc(Nc2nc3c(C)cccc3cc2C#N)c(OC)c1 | inconclusive: 28.2 µM [fluorescent, side channel, partial curve]
O=C(COC(=O)C1CC(O)CN1S(=O)(=O)c1ccc(Cl)cc1)c1ccccc1 (stereo not drawn) | inactive
O=C(C1CCCO1)N1CCN(C(=S)Nc2ccc(Cl)cc2Cl)CC1 (stereo not drawn) | inconclusive: 89.1 µM [inhibitor, single point]
CCCCCCc1cc2cc(C(=O)OCC)c(=O)oc2cc1O | inactive
Cc1c(Cl)cccc1NC(=O)CSC(C)c1nc2ccccc2c(=O)[nH]1 (stereo not drawn) | inconclusive: 15.8 µM [quencher, side channel, single point]
NC(=O)CSc1nnc2ccc(-c3ccc(F)cc3)nn12 | inconclusive: 28.2 µM [fluorescent, side channel, partial curve]
CC(C)c1nc(N2CCN(C(=O)c3ccccc3)CC2)c(C#N)c2c1COC(C)(C)C2 | inactive
COc1ccc(/C=C2/SC(=S)N(CC(=O)O)C2=O)cc1OCc1ccc(Cl)cc1 | inconclusive: 50.1 µM [inhibitor, partial curve]
COc1ccc(C(=O)NCCNC(=O)c2cnccn2)cc1OC | inconclusive: 70.8 µM [fluorescent, side channel, single point]
COc1ccc(Br)cc1CNc1ccc(N2CCOCC2)cc1 | inactive
COc1cc(OC)c2nc(C)c3c(c2c1)N(c1ccc(O)cc1)CC3 | inconclusive: 35.5 µM [quencher, side channel, single point]
Oc1c(CN2CCN(c3ccccn3)CC2)cc(Cl)c2cccnc12 | inconclusive: 28.2 µM [quencher, side channel, partial curve, poor fit]
Cc1cc(-c2csc(N)n2)c(C)n1CCc1ccccc1 | inconclusive: 28.2 µM [quencher, side channel, partial curve]
COc1ccc(C(=O)Nc2ccc(S(=O)(=O)N3CCCC3)cc2)cc1[N+](=O)[O-] | inconclusive: 8.91 µM [quencher, side channel, single point]
NC(=O)NC(=O)COC(=O)c1cccc(NS(=O)(=O)/C=C/c2ccccc2)c1 | inconclusive: 10 µM [inhibitor, full curve, poor fit]
CCc1ccc(NC(=O)C(=O)NNC(=O)c2ccc(OC)cc2)cc1 | inactive
Cc1nc(N)c(C#N)c(-c2cccnc2)c1-c1ccccc1 | inactive
Cc1ccc(NC(=O)CCCc2c[nH]c3ccccc23)nc1 | inconclusive: 15.8 µM [fluorescent, side channel, single point]
